Reference: patent publication US5451571A (The Cleveland Clinic Foundation, priority 1994, dated 1995)
Part of at least one peptide drawing is inferred or uncertain, most often the ends. Non-standard residues stand in square brackets, D forms with d. Residues, ends and D or L forms follow the SMILES beside them. Sar = CNCC(=O)O

Legend:
[1] = system: dorsal motor nucleus of the vagus (dmnX); experiment: Unilateral microinjection into the dmnX of anesthetized rats, MAP and HR; format: in vivo, rat; settings: for HEART RATE Onset / MEAN BLOOD PRESSURE Onset / HEART RATE Duration / HEART RATE Peak / MEAN BLOOD PRESSURE Duration / MEAN BLOOD PRESSURE Peak: dmnX; for HEART RATE Duration / HEART RATE Peak / MEAN BLOOD PRESSURE Duration / MEAN BLOOD PRESSURE Peak: calculated from the onset
[2] = system: nucleus tractus solitarii (nTS); experiment: Unilateral microinjection into the nTS of anesthetized rats, MAP and HR; format: in vivo, rat; settings: for decrease in HR / reduction in MAP: n=31 rats; for HEART RATE Onset / MEAN BLOOD PRESSURE Onset / HEART RATE Duration / HEART RATE Peak / MEAN BLOOD PRESSURE Duration / MEAN BLOOD PRESSURE Peak: nTS; for HEART RATE Duration / HEART RATE Peak / MEAN BLOOD PRESSURE Duration / MEAN BLOOD PRESSURE Peak: calculated from the onset
[3] = system: rat hypothalamo-neurohypophysial system (HNS) explants; experiment: AVP release from perfused hypothalamo-neurohypophysial system (HNS) explants; format: cell-based
[4] = 0.1-12.5 ng into either the nTS or the dmnX

## CC[C@H](C)[C@H](NC(=O)[C@H](Cc1ccc(O)cc1)NC(=O)[C@@H](NC(=O)[C@H](CCCNC(=N)N)NC(=O)[C@@H](N)CC(=O)O)C(C)C)C(=O)N[C@@H](Cc1c[nH]cn1)C(=O)N1CCC[C@H]1C(=O)O [Ang-(1-7), Asp-Arg-Val-Tyr-Ile-His-Pro]
[1]; 0.1 ng into dmnX, same animals
  decrease in HR: -16±4 beats/min
  decrease in MAP: -8±2 mm Hg
[1]; 2.5 ng into dmnX
  decrease in MAP: -13±2 mm Hg
  fall in HR: -8±2 beats/min
[1]; 0.1 ng
  HEART RATE Onset: 56 ± 20 s
  MEAN BLOOD PRESSURE Onset: 29 ± 10 s
  HEART RATE Duration: 430 ± 115 s
  HEART RATE Peak: 114 ± 47 s
  MEAN BLOOD PRESSURE Duration: 306 ± 112 s
  MEAN BLOOD PRESSURE Peak: 63 ± 28 s
[1]; 2.5 ng
  HEART RATE Onset: 49 ± 21 s
  MEAN BLOOD PRESSURE Onset: 24 ± 12 s
  HEART RATE Duration: 368 ± 16 s
  HEART RATE Peak: 49 ± 14 s
  MEAN BLOOD PRESSURE Duration: 257 ± 55 s
  MEAN BLOOD PRESSURE Peak: 69 ± 33 s
[2]; 0.1 ng into nTS, both peptides in the same animals, n=5
  decrease in MAP: -9±1 mm Hg
[2]; 0.1 ng into nTS
  decrease in HR: -6±1 beats/min
  reduction in MAP: -7±1 mm HG
[2]; 0.1 ng into nTS, same animals
  bradycardia (HR change): -9±2 beats/min
[2]; 2.5 ng into nTS, same animals
  bradycardia (HR change): -10±3 beats/min
[2]; 2.5 ng into nTS, same animals, n=7
  decrease in MAP: -15±2 mm Hg
[2]; 12.5 ng into nTS
  decrease in HR: -10±2 beats/min
  reduction in MAP: -10±2 mm HG
[2]; 250 ng into either the nTS or the dmnX, n=18
  action on MAP at high dose: biphasic depressor/pressor action on MAP or produced a pure pressor response
[2]; [4]
  onset of the depressor effect, on average: ≤ 29 s
  return of MAP and HR to baseline: 5 to 6 min
  time of maximal fall in MAP after delivery: ≤ 2 min
[2]; 0.1 ng
  HEART RATE Onset: 26 ± 8 s
  MEAN BLOOD PRESSURE Onset: 39 ± 16 s
  HEART RATE Duration: 188 ± 32 s
  HEART RATE Peak: 62 ± 16 s
  MEAN BLOOD PRESSURE Duration: 159 ± 3 s
  MEAN BLOOD PRESSURE Peak: 39 ± 3 s
[2]; 2.5 ng
  HEART RATE Onset: 44 ± 16 s
  MEAN BLOOD PRESSURE Onset: 23 ± 7 s
  HEART RATE Duration: 328 ± 58 s
  HEART RATE Peak: 88 ± 21 s
  MEAN BLOOD PRESSURE Duration: 361 ± 58 s
  MEAN BLOOD PRESSURE Peak: 97 ± 21 s
[3]; 4 μM
  time to significant increase in AVP release: ≤ 15 min
[3]; 4 μM after two hours of [Sar1,Thr8] Ang II 20 μM
  further AVP release on addition of the peptide: no further increase
[3]; 0.04-4 μM, two-way analysis of variance
  potency on AVP release compared with Ang II: equipotent
[3]; highest concentration tested, 4.0 μM, 15 minutes
  AVP content in the HNS effluent, of control: 216%±45

## CC[C@H](C)[C@H](NC(=O)[C@H](Cc1ccc(O)cc1)NC(=O)[C@@H](NC(=O)[C@H](CCCNC(=N)N)NC(=O)CNC)C(C)C)C(=O)N[C@@H](Cc1c[nH]cn1)C(=O)N1CCC[C@H]1C(=O)N[C@H](C(=O)O)[C@@H](C)O [[Sar^1, Thr^8] Ang II, Sar-Arg-Val-Tyr-Ile-His-Pro-Thr] (H-[Sar]RVYIHPT-OH)
[3]; 20 μM
  activity on AVP release compared with Ang-(1-7) and Ang II: relatively weak antagonist
  time to AVP release significantly above control: 30 to 45 min
[3]; first 15 minutes of 20 μM, experiments in which Ang II was added (n=4)
  AVP release, of control: 185%±32
[3]; first 15 minutes of 20 μM, experiments in which Ang-(1-7) was added (n=4)
  AVP concentration in the effluent, over control values: 195%±24
